In PMC5323046:
No constants are given. Whether binding was seen depends on the method and setting. In cells and extracts the contact can be indirect. A yes stands for co-enrichment or nearness to the bait. Other partners may have been found. For part of these data: Where a sequence is shown, tags or fusion partners need not be part of it.

Sequences of proteins named here, by UniProt entry; tags and fusion partners are left off.
UniProt P51159: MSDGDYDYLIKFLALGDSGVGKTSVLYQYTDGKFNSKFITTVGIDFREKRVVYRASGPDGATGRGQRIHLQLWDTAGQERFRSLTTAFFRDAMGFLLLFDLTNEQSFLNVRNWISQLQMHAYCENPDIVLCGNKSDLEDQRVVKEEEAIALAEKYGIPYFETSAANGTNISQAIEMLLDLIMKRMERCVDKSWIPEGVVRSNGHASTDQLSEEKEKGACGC
UniProt Q96GC9: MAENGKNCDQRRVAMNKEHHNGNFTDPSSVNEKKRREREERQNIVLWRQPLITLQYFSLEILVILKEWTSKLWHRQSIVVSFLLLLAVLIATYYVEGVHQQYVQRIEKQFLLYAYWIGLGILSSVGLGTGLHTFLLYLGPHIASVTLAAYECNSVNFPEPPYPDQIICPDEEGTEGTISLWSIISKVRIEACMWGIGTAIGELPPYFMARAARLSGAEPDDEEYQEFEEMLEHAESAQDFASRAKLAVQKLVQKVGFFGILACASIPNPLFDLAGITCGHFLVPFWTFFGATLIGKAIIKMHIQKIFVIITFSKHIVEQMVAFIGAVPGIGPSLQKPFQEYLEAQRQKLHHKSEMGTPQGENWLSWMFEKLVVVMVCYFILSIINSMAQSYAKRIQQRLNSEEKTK
UniProt Q8NEV8: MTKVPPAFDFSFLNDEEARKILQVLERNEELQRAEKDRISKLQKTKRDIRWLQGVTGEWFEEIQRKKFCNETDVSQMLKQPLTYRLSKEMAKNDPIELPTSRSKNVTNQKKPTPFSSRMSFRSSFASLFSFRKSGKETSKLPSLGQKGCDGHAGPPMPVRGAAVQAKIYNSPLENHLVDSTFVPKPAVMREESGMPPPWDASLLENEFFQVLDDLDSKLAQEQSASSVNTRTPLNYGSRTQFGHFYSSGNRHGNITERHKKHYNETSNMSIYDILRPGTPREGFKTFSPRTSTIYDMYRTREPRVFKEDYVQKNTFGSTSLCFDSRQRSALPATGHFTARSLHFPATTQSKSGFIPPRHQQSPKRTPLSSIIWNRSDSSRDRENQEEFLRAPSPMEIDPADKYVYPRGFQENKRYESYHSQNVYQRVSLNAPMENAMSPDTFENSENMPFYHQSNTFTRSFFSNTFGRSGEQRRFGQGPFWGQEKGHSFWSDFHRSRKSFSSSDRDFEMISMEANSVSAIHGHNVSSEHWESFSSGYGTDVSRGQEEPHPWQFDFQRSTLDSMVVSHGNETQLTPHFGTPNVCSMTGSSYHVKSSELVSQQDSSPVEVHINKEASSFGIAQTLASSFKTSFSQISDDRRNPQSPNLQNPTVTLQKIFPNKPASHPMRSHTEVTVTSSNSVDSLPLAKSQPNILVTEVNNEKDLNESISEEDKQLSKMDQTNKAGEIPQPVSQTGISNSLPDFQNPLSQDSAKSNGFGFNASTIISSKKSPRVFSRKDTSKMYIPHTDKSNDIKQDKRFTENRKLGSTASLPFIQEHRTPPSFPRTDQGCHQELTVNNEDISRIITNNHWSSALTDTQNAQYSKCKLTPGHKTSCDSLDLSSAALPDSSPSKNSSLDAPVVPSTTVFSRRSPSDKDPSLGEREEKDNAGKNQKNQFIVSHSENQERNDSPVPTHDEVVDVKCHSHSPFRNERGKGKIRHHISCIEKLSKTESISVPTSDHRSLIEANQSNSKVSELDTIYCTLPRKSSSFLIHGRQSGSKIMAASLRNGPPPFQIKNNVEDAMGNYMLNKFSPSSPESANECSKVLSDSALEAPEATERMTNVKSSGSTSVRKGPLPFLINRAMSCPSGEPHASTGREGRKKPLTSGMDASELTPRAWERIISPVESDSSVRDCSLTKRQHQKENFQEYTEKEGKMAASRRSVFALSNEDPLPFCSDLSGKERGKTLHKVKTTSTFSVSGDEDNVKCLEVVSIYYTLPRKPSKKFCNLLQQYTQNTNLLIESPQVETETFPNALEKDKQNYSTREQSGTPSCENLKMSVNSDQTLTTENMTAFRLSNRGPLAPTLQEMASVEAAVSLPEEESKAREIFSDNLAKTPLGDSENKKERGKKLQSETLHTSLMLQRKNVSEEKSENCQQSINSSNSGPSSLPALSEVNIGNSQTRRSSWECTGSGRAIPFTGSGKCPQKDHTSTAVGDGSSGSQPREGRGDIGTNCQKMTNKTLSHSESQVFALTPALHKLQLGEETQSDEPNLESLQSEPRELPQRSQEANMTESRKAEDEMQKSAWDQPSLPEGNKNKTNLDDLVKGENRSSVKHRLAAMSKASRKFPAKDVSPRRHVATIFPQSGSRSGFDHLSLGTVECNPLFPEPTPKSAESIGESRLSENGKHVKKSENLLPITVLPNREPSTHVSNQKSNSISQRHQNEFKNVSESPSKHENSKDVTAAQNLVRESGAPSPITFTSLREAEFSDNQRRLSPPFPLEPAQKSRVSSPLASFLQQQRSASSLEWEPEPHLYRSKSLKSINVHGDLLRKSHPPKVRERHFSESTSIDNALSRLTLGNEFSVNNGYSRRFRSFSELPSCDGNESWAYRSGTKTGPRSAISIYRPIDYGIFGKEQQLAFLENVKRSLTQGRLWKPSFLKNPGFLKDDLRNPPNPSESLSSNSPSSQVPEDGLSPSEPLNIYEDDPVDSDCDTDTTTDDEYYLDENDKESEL
UniProt Q96BY7: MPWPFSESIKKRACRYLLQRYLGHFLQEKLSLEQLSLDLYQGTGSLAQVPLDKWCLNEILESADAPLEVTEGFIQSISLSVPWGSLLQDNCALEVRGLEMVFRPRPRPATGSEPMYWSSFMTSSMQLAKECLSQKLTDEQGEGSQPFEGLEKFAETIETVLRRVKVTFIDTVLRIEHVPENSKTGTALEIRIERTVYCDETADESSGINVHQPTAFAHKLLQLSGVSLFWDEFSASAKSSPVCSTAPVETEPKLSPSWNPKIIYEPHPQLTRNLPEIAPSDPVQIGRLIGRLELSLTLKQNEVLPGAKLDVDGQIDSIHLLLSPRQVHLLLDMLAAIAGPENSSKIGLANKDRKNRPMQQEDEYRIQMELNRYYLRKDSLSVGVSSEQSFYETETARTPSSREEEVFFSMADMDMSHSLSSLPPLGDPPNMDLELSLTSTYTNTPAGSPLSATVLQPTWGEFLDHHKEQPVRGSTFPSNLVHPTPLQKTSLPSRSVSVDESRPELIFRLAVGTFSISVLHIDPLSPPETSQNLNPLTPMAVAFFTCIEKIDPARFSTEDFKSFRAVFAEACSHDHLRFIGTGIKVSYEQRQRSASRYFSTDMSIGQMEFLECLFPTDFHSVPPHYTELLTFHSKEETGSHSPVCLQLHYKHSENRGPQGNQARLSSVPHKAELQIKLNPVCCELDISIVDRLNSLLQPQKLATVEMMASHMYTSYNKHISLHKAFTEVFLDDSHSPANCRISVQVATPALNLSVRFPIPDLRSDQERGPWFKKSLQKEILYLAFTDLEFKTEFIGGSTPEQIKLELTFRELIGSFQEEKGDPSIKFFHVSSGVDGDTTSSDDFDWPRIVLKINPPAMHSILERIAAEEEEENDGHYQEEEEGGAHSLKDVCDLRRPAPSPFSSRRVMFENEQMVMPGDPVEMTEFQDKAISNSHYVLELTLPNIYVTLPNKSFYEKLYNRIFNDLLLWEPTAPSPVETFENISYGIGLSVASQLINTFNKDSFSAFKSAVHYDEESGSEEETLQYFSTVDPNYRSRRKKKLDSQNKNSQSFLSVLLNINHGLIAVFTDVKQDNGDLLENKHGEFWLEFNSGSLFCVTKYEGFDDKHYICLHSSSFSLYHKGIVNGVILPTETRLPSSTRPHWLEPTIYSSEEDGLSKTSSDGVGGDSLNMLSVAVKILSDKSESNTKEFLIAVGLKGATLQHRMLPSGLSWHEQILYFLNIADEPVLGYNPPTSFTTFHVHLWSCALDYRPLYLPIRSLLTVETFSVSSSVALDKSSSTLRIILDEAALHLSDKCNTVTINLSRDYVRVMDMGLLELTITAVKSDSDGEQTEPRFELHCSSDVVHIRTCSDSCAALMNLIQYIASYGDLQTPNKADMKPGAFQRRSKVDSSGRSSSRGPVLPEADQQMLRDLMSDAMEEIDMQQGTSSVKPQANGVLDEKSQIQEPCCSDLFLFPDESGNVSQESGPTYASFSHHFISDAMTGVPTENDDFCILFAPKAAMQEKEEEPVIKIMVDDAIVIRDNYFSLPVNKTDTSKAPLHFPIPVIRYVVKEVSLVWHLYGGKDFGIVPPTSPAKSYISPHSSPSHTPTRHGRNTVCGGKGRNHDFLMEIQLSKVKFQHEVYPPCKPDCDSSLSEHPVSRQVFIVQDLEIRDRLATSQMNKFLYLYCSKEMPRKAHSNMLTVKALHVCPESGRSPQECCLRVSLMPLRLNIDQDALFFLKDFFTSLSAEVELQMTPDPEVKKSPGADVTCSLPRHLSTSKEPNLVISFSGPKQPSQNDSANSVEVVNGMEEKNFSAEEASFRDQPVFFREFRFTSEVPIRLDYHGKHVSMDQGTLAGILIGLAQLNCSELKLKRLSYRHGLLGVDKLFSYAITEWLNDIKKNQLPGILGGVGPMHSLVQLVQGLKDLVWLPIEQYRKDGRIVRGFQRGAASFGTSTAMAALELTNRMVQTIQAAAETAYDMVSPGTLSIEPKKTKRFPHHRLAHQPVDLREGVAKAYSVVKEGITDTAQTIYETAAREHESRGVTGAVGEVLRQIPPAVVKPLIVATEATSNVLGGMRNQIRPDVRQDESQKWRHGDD
UniProt Q8TDY2: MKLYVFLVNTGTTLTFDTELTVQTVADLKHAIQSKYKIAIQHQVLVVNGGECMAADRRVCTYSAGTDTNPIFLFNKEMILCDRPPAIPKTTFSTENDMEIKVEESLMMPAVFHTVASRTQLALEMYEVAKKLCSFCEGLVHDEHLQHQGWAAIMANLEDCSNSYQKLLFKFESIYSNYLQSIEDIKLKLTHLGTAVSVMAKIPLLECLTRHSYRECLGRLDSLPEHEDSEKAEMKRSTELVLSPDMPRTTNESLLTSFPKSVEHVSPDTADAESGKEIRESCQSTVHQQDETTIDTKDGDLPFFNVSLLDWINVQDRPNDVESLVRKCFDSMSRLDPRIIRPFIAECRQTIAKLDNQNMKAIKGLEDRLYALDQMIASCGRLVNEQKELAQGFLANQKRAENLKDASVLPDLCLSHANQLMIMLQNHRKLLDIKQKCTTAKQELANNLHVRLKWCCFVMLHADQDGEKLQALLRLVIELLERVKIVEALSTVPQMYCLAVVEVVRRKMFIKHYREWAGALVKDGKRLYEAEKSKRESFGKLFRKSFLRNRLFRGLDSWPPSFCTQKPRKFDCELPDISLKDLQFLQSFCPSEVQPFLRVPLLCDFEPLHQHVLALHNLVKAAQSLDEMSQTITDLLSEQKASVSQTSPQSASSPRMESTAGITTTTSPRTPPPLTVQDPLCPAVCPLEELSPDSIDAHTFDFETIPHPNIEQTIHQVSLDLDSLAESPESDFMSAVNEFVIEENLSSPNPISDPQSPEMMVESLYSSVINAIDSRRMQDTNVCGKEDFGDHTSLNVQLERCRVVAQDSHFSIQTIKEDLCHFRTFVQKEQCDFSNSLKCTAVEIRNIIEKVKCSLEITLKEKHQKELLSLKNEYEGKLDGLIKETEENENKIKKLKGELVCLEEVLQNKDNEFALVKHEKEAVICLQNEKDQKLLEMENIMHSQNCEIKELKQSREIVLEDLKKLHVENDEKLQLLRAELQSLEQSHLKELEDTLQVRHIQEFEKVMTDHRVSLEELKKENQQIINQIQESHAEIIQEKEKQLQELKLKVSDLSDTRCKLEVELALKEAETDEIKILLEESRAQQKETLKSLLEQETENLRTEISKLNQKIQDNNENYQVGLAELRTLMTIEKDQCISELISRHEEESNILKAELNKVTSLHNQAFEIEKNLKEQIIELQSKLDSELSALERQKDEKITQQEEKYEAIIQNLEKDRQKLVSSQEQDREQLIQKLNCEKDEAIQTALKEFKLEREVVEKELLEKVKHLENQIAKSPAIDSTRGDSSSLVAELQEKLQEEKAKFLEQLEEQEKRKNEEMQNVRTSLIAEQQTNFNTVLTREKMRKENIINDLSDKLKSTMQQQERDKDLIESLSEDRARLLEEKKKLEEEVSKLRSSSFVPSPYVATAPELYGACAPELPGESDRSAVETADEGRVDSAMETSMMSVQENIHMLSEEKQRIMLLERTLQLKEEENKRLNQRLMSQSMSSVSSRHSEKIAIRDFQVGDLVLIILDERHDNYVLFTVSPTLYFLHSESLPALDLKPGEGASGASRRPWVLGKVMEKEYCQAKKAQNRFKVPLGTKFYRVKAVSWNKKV

How the values were obtained:
[1] = biological target: HA-tagged RAB27A (Ras-related protein Rab-27A) (human) (UniProt P51159); assay: affinity purification with mass spectrometry; 293T-REx cells inducibly expressing N-terminally HA-tagged baits; lysis in MCLB (50 mM Tris pH 7.4, 150 mM NaCl, 0.5% NP40); anti-HA-agarose, elution with HA peptide, trypsin, LC-MS/MS; CompPASS, HCIPs with WDN >=1 and APSM >=2
[2] = biological target: HA-tagged MADD (MAP kinase activating death domain) (human) (UniProt Q8WXG6); assay: as above
HA-tagged RAB27B (human) = biological target: T1, HA-tagged RAB27B (human) (UniProt O00194); assay: as above
T1 sequence: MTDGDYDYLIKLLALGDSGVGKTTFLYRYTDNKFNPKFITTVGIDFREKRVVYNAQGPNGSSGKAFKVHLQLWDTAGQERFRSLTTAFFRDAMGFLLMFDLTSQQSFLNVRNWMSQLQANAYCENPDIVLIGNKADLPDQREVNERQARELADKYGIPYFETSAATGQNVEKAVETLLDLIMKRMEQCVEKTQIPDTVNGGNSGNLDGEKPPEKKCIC

[3] = biological target: T2, HA-tagged SMCR8 fragment 1–700 (human) (UniProt Q8TEV9); assay: affinity purification with mass spectrometry; 293T cells transiently transfected with HA-tagged full length SMCR8 or fragments; HA-IP followed by mass spectrometric analysis
T2 sequence: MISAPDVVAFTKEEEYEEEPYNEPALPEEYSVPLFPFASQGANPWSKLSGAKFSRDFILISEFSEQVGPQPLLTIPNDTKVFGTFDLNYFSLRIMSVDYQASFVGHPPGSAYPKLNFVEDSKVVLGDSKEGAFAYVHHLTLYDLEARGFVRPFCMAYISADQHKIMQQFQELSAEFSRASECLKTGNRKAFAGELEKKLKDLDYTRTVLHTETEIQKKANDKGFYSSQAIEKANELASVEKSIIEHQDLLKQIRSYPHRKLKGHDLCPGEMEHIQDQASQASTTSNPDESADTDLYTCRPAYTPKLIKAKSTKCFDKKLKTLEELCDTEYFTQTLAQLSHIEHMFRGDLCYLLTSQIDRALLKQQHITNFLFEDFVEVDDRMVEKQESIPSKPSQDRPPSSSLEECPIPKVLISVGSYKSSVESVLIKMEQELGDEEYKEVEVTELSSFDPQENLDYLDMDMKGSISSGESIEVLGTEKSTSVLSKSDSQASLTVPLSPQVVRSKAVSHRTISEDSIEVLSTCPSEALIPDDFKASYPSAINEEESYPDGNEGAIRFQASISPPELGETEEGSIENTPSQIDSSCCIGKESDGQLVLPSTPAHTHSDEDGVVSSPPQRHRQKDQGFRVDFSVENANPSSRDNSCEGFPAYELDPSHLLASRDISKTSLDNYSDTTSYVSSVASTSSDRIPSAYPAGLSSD

[4] = biological target: T3, HA-tagged full-length SMCR8 (human) (UniProt Q8TEV9); assay: as above
T3 sequence: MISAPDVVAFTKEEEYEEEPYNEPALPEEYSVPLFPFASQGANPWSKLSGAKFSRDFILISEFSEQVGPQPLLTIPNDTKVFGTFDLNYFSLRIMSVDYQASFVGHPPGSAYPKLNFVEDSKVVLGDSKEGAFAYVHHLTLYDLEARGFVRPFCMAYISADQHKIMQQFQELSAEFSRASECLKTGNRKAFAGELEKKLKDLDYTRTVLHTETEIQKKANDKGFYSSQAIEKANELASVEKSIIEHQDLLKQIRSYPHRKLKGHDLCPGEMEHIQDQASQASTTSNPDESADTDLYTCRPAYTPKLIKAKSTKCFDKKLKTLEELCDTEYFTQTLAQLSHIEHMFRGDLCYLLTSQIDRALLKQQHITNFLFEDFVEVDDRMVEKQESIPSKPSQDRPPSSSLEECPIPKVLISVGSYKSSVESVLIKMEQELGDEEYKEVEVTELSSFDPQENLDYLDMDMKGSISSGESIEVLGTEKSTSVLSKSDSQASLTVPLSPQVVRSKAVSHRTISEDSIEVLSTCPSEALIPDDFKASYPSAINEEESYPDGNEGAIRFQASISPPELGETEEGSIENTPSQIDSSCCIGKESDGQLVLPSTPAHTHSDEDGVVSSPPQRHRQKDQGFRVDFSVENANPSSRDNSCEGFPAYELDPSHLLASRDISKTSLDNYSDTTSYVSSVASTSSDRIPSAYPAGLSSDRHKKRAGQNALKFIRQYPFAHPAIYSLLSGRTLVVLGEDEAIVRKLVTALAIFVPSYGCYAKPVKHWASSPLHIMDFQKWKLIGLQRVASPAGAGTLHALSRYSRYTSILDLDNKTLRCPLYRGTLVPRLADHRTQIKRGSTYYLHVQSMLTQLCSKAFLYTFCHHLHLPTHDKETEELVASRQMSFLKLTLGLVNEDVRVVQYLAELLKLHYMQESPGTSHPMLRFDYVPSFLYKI

[5] = biological target: T3, HA-tagged full-length SMCR8 (human); assay: affinity purification with mass spectrometry; 293T-REx cells inducibly expressing N-terminally HA-tagged baits; lysis in MCLB (50 mM Tris pH 7.4, 150 mM NaCl, 0.5% NP40); anti-HA-agarose, elution with HA peptide, trypsin, LC-MS/MS; CompPASS, HCIPs with WDN >=1 and APSM >=2

VMP1 (from UniProt Q96GC9 1-406)
binding [1]: binds

SYTL5 (from UniProt Q8TDW5 1-730)
binding [1]: binds

PPP3CB (from UniProt P16298 1-524)
binding [2]: binds

EXPH5 (from UniProt Q8NEV8 1-1989)
binding [1]: binds | binding (HA-tagged RAB27B (human)): binds

ATG2B (from UniProt Q96BY7 1-2078)
binding [1]: binds

SYTL2 (from UniProt Q9HCH5 1-934)
binding (HA-tagged RAB27B (human)): binds

endogenous FIP200/RB1CC1 (focal adhesion kinase interacting protein of 200 kDa/RB1 inducible coiled-coil1) (from UniProt Q8TDY2 1-1594)
binding [3]: binds | binding [4]: binds | binding [5]: binds

TM9SF1 (from UniProt O15321 28-606)
binding [1]: binds

endogenous MADD (from UniProt Q8WXG6 1-1647)
binding (HA-tagged RAB27B (human)): binds
